Assay [1] has as its target T1, human IL-27 beta-subunit EBI3 (hEBI3) (human) (UniProt Q14213).
T1 sequence: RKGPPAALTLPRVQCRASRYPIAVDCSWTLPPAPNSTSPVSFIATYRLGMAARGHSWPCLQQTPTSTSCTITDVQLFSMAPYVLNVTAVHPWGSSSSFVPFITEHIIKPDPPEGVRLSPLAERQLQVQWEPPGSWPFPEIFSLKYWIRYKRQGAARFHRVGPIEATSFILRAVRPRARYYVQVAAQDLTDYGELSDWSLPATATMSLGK
In words: co-immunoprecipitation.

Assay [2] concerns the target T1, human IL-27 beta-subunit EBI3 (hEBI3) (human). In words: co-immunoprecipitation with anti-V5 from medium of 293T cells, immunoblot against EBI3. Background: In western blotting, separated proteins are transferred to a membrane and probed.

These are yes or no findings as the source states them, for the method shown. In cells and extracts the contact can be indirect. Some results given as binding are weak or reduced against the parent protein; the word gives no strength. Tags and fused reporters may be left off the sequences shown.

B1: mouse IL-27 alpha-subunit (mIL-27α), wild type, with C-terminal (GS)4-linker and V5 tag (ligand, not shown: small tags and cut ends)
chain: FPTDPLSLQELRREFTVSLYLARKLLSEVQGYVHSFAESRLPGVNLDLLPLGYHLPNVSLTFQAWHHLSDSERLCFLATTLRPFPAMLGGLGTQGTWTSSEREQLWAMRLDLRDLHRHLRFQVLAAGFKCSKEEEDKEEEEEEEEEEKKLPLGALGGPNQVSSQVSWPQLLYTYQLLHSLELVLSRAVRDLLLLSLPRRPGSAWDSGSGSGSGS
Turning to B1, the binding entry in assay [1] and in assay [2] was “binds” in each case.

B2: mIL-27α^C158L, with C-terminal (GS)4-linker and V5 tag (ligand, not shown: small tags and cut ends)
chain: FPTDPLSLQELRREFTVSLYLARKLLSEVQGYVHSFAESRLPGVNLDLLPLGYHLPNVSLTFQAWHHLSDSERLCFLATTLRPFPAMLGGLGTQGTWTSSEREQLWAMRLDLRDLHRHLRFQVLAAGFKLSKEEEDKEEEEEEEEEEKKLPLGALGGPNQVSSQVSWPQLLYTYQLLHSLELVLSRAVRDLLLLSLPRRPGSAWDSGSGSGSGS
B2: the binding result in assay [2] was “binds”.

These data come from patent publication US20200062817A1.
